Measured values as given in PubChem BioAssay AID1259415 (National Center for Advancing Translational Sciences (NCATS), 2018).
Values joined by “and” are separate entries in the source; they are usually repeats but may differ in a detail not shown here. Equal values may be shown once. Out of some 410,000 compounds screened, about 18,000 (4.4%) were called active. Inconclusive results, whose numbers are uncertain, are shown with a selection of clear calls. Cut-off read from the data, not from the text of the source: active = activity change below about -60%; inconclusive = no clear call, values can overlap the other calls; inactive = above about -39%.

test: qHTS Assay for inhibitors of the human cytomegalovirus (HCMV); conditions: HFF cells, HCMV-luciferase reporter, 72 h; at 57.5 µM; stronger effect = lower value
In short: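 HFF cells seeded 16 h at 37C, treated with compounds, infected with luciferase-reporter HCMV at MOI 1 PFU/cell; luciferase read at 72 h post infection, normalized to buffer-only and Salinomycin controls.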
% is set by controls: 0 for no effect and ±100 for the full control effect.

SMILES | activity change, negative = inhibition
Cc1ccc(NC(=O)C2CCN(c3nc(-c4ccc(C(C)C)cc4)no3)CC2)c(Cl)c1 | active: -69.4%
CCn1c([N+](=O)[O-])nc2c1c(=O)[nH]c(=O)n2C | active: -98.1%
Cc1cc(C)c[n+](CC(=O)c2cc3ccccc3oc2=O)c1 | active: -98.4%
N#CC1=C(N)NC(SCc2ccccc2)=C(C#N)C12CCCC2 | inconclusive: -57.7%
O=C(Cc1ccccc1)Nc1sc2c(c1C(=O)Nc1ccc(Br)cc1)CCCC2 | inconclusive: -41.9%
CC(Sc1n[nH]c(-c2cccs2)n1)C(=O)N1CCCC1 (centres undefined) | inactive: 20.5%
CCN(CC)S(=O)(=O)c1ccc(Oc2ccc(S(=O)(=O)N(CC)CC)cc2)cc1 | inactive: 19.5%
CCNC(=O)c1cc2c(=O)n3cccc(C)c3nc2n(Cc2ccc(C)cc2)c1=N | inconclusive: -43.1%
CCC(=O)Nc1ccc(NC(=O)CN2CCCC(C)C2)c(Cl)c1 (centres undefined) | inconclusive: -48.2%
CCOP(=O)(OCC)C(Nc1ccccn1)c1ccc(F)cc1 (centres undefined) | active: -69.6%
COCCCn1c(-c2ccc(S(=O)(=O)N3CCOCC3)cc2)csc1=Nc1ccccc1 | active: -88% and inconclusive: -58.4%
O=C(N/N=C/c1cccc(Br)c1)c1ccc(Br)cc1 | inactive: -0.409%
CCOc1ccc(-n2nc3c(SCCN4CCCC4)nnc(C)c3c2C)cc1 | inconclusive: -51%
O=C(O)CCCn1cc(NC(=O)COc2ccc(F)cc2F)cn1 | inactive: 3.82%
COc1ccccc1CNC(=O)C(C)Sc1ccsc1[N+](=O)[O-] (centres undefined) | inconclusive: -48.4%
C=CCn1c(=O)c2ccccc2n2c(SCC(=O)NCC)nnc12 | inconclusive: -45.5%
O=C(CN1C(=O)COc2ccc(Cl)cc21)N1CCCCC1 | inconclusive: -53%
O=C(c1sc2cccc(F)c2c1Cl)N1CCN(c2ncccn2)CC1 | inconclusive: -41.2%
O=C(NC1CCN(Cc2ccccc2)CC1)c1cccc(Br)c1 | inconclusive: -50.7%
COc1ccc2c(c1)CCc1c(C(=O)Nc3cnn(Cc4ccc(Cl)cc4Cl)c3)noc1-2 | inactive: 18.1%
CCCCCCCC(=O)N/N=C(\C)c1cccnc1 | inconclusive: -43.2%
Cc1ccc(S(=O)(=O)c2nnn3c2nc(NCc2ccccc2)c2sccc23)cc1 | inconclusive: -40.4%
CN(Cc1ccco1)c1ncnc2ccc(-c3ccccc3Cl)cc12 | inconclusive: -57.6%

Three structures from above, arranged by count of non-hydrogen atoms, largest number first.
SMILES | activity change, negative = inhibition
CCNC(=O)c1cc2c(=O)n3cccc(C)c3nc2n(Cc2ccc(C)cc2)c1=N | inconclusive: -43.1%
O=C(O)CCCn1cc(NC(=O)COc2ccc(F)cc2F)cn1 | inactive: 3.82%
CCCCCCCC(=O)N/N=C(\C)c1cccnc1 | inconclusive: -43.2%

(list continues)

SMILES | activity change, negative = inhibition
O=C(Cc1ccc(S(=O)(=O)N2CCOCC2)s1)N1CCN(S(=O)(=O)c2cccc(Cl)c2)CC1 | inactive: -32.4%
CCOc1ccc(CNC(c2ccccc2)c2ccccc2)cc1 | inconclusive: -54.2%
COc1ccc(CCN2CC(C(=O)OC(C)C(=O)Nc3cccc(Cl)c3)CC2=O)cc1OC (centres undefined) | inconclusive: 0%
CCN(CC)S(=O)(=O)c1ccc2[nH]c(=O)cc(C(=O)N(C)C3CCS(=O)(=O)C3)c2c1 (centres undefined) | inconclusive: 0%
O=S(=O)(c1cccc(-c2csc(N/N=C/c3ccco3)n2)c1)N1CCOCC1 | inconclusive: -57.5%
CCCc1ncc(CN2CCCC(C(=O)Nc3ccc(-c4cccc(OC)c4)cc3)C2)cn1 (centres undefined) | inconclusive: -54.4%
COc1ccc(NC(=S)N2CCC(NC(=O)c3cccc(C)c3)CC2)cc1 | inconclusive: -53.3%
Cc1nn(S(=O)(=O)c2ccc(C(C)(C)C)cc2)c(C)c1S(=O)(=O)N1CCOCC1 | inconclusive: -43.6%
CSc1ccc(/C=N\Nc2nncn2N)cc1 | inconclusive: -40.7%
Cc1ccc(NC(=S)NC2CC3CCC(C2)N3Cc2ccco2)c(C)c1 (centres undefined) | inconclusive: -42%
O=C(CCS(=O)(=O)c1nc(-c2cccs2)cc(C(F)(F)F)n1)Nc1ccc(Br)cc1 | active: -97.7%
Cc1ccc(NC(=O)/C(C#N)=C\c2ccc(-c3ccc(Cl)cc3)o2)c(C)c1 | inconclusive: -44.7%
CSCCC(NC(=O)COc1ccccc1)C(=O)NCCOc1ccc(C)cc1 (centres undefined) | inactive: 0.75%
O=C(Nc1ccccc1F)Nc1ccccc1F | inactive: -24.6%
O=[N+]([O-])c1cc(-c2cccnc2)n[nH]1 | inactive: -34.3%
O=C(Nc1ccc(F)cc1F)c1cc2ncc(CCCl)cn2n1 | inconclusive: -44.5%
O=c1ccn(Cc2ccc(F)cc2)c2ccnc(C(F)(F)F)c12 | inconclusive: -46.3%
Cc1ccc(NC(=O)c2cc(S(=O)(=O)N3CCC(C)CC3)cn2C)cc1Cl | inconclusive: -55.4%
CC(C)(C)NS(=O)(=O)c1ccc(NS(C)(=O)=O)cc1 | inactive: -15.1%
CCN(CC)CCNc1ccc(CO)c2oc3ccccc3c(=O)c12 | active: -89.5%
CC1=NN(c2ccc(C)c(C)c2)C(=O)/C1=C\C=C\c1ccc([N+](=O)[O-])o1 | active: -88.2%
CCOc1ccc(C)cc1S(=O)(=O)n1cnc2ccccc21 | inconclusive: -40.8%
COc1ccc2c(O)c(-c3c(C)cc(C)cc3C)c(=O)[nH]c2c1 | active: -62.6%

Quoted at random: 2 records from the list, in no set order.
SMILES | activity change, negative = inhibition
CCNC(=O)c1cc2c(=O)n3cccc(C)c3nc2n(Cc2ccc(C)cc2)c1=N | inconclusive: -43.1%
CCN(CC)S(=O)(=O)c1ccc(Oc2ccc(S(=O)(=O)N(CC)CC)cc2)cc1 | inactive: 19.5%

(more compounds)

SMILES | activity change, negative = inhibition
Cc1sc2c(c1C)C(c1cccs1)=NCC(=O)N2CC(=O)NCc1cccs1 | inactive: -9.71%
NNC(=O)c1ccccc1-n1cccc1 | inconclusive: -41.2%
COc1ccc(-c2cn(-c3ccc(Br)cc3)c3[n+]2CCS3)cc1 | active: -90.2%
Cc1ccc(NC(=O)c2cc(-c3cccs3)nc3ccccc23)nc1 | inactive: -37%
Oc1ccccc1/C=N/NC(=S)NC1CC2C=CC1C2 (centres undefined) | inconclusive: -54.8%
COc1ccc(OC)c(CNC(=O)c2cc(S(=O)(=O)N3CCC(C)CC3)cn2C)c1 | inactive: -2.53%
COc1cccc(-c2nnc(SCC(=O)OC(C)C)n2Cc2ccco2)c1 | inconclusive: -46%
O=[N+]([O-])c1cccc(/C=N/Nc2nccnc2Cl)c1 | inactive: 21.7%
COc1ccc(CCN(Cc2cccs2)S(=O)(=O)c2ccc(S(=O)(=O)N(C)C3CCCCC3)cc2)cc1OC | inconclusive: -40.2%
CC(=O)OCC12CC(OC(=O)CC(C)C)C(C)=CC1OC1C(O)C(OC(C)=O)C2(C)C12CO2 (centres undefined) | active: -97.3%
CC(C(=O)Nc1sc2c(c1C#N)CCCCC2)N1C(=O)c2ccccc2C1=O (centres undefined) | inactive: -1.95%
N#CC(c1ccc(Cl)nn1)c1c(F)cccc1Cl (centres undefined) | inconclusive: -51%
CC1CC(C)(C)CC2(C1)NC(=O)N(CC(=O)N(Cc1ccccc1)c1ccccc1)C2=O (centres undefined) | inconclusive: -49.1%
CCn1c(C(=O)NCc2ccc(C)cc2)cc2sc(Cl)cc21 | inconclusive: -55.6%
COc1cc([N+](=O)[O-])cc(/C=N/NC(=O)c2ccc(NC(=O)c3ccc(C)cc3)cc2)c1O | active: -102%
CCc1nnc(SCC(=O)Nc2ccc(Cl)cc2F)c2cc3occc3n12 | inconclusive: -52.5%
CCc1ccc(-n2c(SCc3nc(-c4cc(OC)ccc4OC)no3)nnc2-c2ccccc2)cc1 | inconclusive: -43.2%
CCOC(=O)c1c(NC(=O)CCCOc2ccc(C)cc2)sc2c1CCC(C)C2 (centres undefined) | inactive: 5.15%
Cc1c(NC(=O)N(C)C)c(=O)n(-c2ccccc2)n1C | inconclusive: -47.3%
Cc1ccc2nc(NCc3ccccc3)[nH]c2c1 | inconclusive: -50.8%
CC(C)N1CC2(CC(c3ccc(Cl)cc3Cl)=NO2)CN1C(=O)c1ccc(C(C)(C)C)cc1 (centres undefined) | inactive: -9.95%
C1CN(c2nc3nonc3n3nnnc23)CCO1 | inconclusive: -47.3%
C#CCSc1nc(-c2cccs2)ccc1C#N | inactive: -21.1%

SMILES | activity change, negative = inhibition
CCC1Cc2c(nc(N)c3c(N)nc(N4CCCCC4)c(C#N)c23)O1 (centres undefined) | inconclusive: -55.4%
COc1ccc(-c2onc(C)c2C)cc1S(=O)(=O)N1CCc2ccccc21 | inconclusive: -56%
S=C(NC1CCCCC1)N1CCc2ccccc2C1 | inconclusive: -58.8%
O=C(COc1ccc([N+](=O)[O-])cc1)Nc1ccc(N2CCN(C(=O)c3ccco3)CC2)cc1 | inconclusive: -45.6%
CCCOP(=O)(OCCC)c1nc(-c2ccccc2)oc1NCc1ccccc1 | inconclusive: -40.2%
O=c1c2cc(Br)ccc2nc(-c2ccccc2)n1O | inactive: -32.3%
C#Cc1cccc(NC(=O)c2ccc(Cl)cc2Cl)c1 | inconclusive: -50.5%
CCOc1ccccc1NC(=O)Nc1ccc2nc(N3CCN(C)CC3)cc(C)c2c1 | active: -106%
CCN(CC)c1ccc(NC(=O)CN(C)S(=O)(=O)c2cccc3nsnc23)c(C)c1 | active: -66.6%
Cc1cc(C)c(N(C(=O)c2csnn2)C(C(=O)NC2CCCC2)c2ccncc2)c(C)c1 (centres undefined) | inconclusive: -44.6%
CCOc1ccc(C2C(=O)N(C3CCCCCC3)CC(=O)N2Cc2ccc(F)cc2)cc1OC (centres undefined) | inconclusive: -54%
CC(=O)Oc1cc(C)c(Cl)c2c(OC(C)=O)cc(C(C)=O)c(O)c12 | inconclusive: -46.8%
COC(=O)c1c(C)[nH]c(C)c1-c1ccc([N+](=O)[O-])cc1 | inconclusive: -57.7%
Nc1ccc2cc(Br)ccc2c1 | inactive: -7.89%
CCc1cccc(Nc2cc(C)nc3nc(C)nn23)c1 | inactive: -2.46%
COc1ccc(SCC2CN(C)CCC2c2ccc(F)cc2)cc1 (centres undefined) | inactive: -10%
O=C(O)CSCC(=O)Nc1ccc(C2CCCCC2)cc1 | active: -92%
COc1cn(CC(=O)Nc2c(C)cc(C)cc2C)c(CN2CCCCC2)cc1=O | inactive: -17.7%
COc1ccccc1OC(=O)CN1C(=O)c2ccccc2C1=O | inconclusive: -48.3%
Cc1ccc2oc(=O)n(CC(=O)c3ccc(F)cc3)c2c1 | inconclusive: -47.4%
